Experimental data published in patent US20190322750A1.
No constants are given. Whether binding was seen depends on the method and setting. Some results given as binding are weak or reduced against the parent protein; the word gives no strength.

Sequences of proteins named here, by UniProt entry; tags and fusion partners are left off. Residues count along the entry.
UniProt Q9NZQ7, residues 19-239: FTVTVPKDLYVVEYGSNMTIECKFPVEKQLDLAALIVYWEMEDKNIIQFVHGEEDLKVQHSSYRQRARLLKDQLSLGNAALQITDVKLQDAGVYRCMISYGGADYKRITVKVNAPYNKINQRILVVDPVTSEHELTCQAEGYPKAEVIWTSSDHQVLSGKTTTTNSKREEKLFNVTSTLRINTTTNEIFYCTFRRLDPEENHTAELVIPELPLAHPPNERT

B1: PDL1-16E12 (LS/4B7) (scFv, V domains shown)
VH: QMQLVQSGAEVKKPGSSVKVSCKASGGTFSSYAISWVRQAPGQGLEWMGRIIPILGIANYAQKFQGRVTITADKSTSTAYMELSSLRSEDTAVYYCAKPRDGYNLVAFDIWGQGTMVTVSS
VL: QLVLTQPPSVSGAPGQRVTISCTGTNSNIGAGYDVHWYQQLPGTAPKLLIVTNHNRPSGVPDRFSGSKSDTSASLALTGLQAEDEATYYCQSYDSRLSGPVFGTGTKVTVL
B2: PDL1-23E10 (scFv, V domains shown)
VH: QMQLVESGAEVKKPGSSVKVSCKVSGENFRSHAISWVRQAPGQGLEWMGRIIPIVGLADYPQKFQGRVTISADESTGTAYMDLSSLRSEDTAVYYCVTGRPPWHWGQGILITVSS
VL: QLVLTQPPSVSGAPGQRVTISCTGSSSNIGAGYDVHWYQQLPGTAPKLLIYSNRNRPSGVPDRFSGSKSGTSASLAITGLQAEDEADYYCQSYDSSLSGPNYVFGTGTKVTVL

Tests used:
[1] = target: antigen PD-L1 coated on the immunoplate in the monoclonal scFv-phage ELISA (UniProt Q9NZQ7); experiment: monoclonal scFv-phage ELISA on coated antigen PD-L1; reference: parent 16E12
[2] = target: antigen PD-L1 coated on the immunoplate in the monoclonal scFv-phage ELISA (UniProt Q9NZQ7); experiment: monoclonal scFv-phage ELISA on coated antigen PD-L1

Binder	binding [1]	binding [2]
B1	binds	–
B2	–	binds
